Measured values taken from PubChem BioAssay (NCATS).
This list was built around the results that the source calls inconclusive (neither active nor inactive); the mix of calls is not that of the screen. Where the call is inconclusive, the potency comes from a doubtful curve fit. Calls of active or inactive are those of the source. The call rests on the fitted dose curve; in most records, active means well fitted cell-killing curve with a large enough effect; inconclusive means small, poorly fitted or top-dose-only effect; inactive means flat fitted curve, though single readings scatter.

Assay: Identifying Small Molecule Inhibitors of Pancreatic Cancer Stem Cells (A278, Adherent) (AID 1259361);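 further: viability read after 48 h compound exposure; nearly all actives have a fitted effect of over 35% in size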;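 on viability (% of control): 100% = DMSO-treated cells and 0% = cell-free media-only wells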
Settings: viability (% of control): at 46.1 µM (top of the series) unless noted
Excerpt: Progenitor-like cancer cells, often referred to as cancer stem cells (CSC), are believed to be the drivers of therapeutic resistance and rapid recurrence. CSCs are postulated to reside in specific niches characterized by low oxygen tension, limited nutrient supply, and high redox load. Selectively targeting CSC, alone or in combination with cytotoxic agents, as a means to produce durable remissions is an appealing concept. Modeling these cells in in vitro setting is an important step in finding new therapies and/or targets. Multiple reports highlight that forcing cells in culture into 3-dimensionaly architectures (spheroids) re-establishes key progenitor-like transcriptional signatures. Pancreatic cancer is among the diseases with the most dismal outlook which is driven, largely, by recurance following front-line therapies. […] In hopes of deriving new insight into the targeting of these pancreatic CSCs we examined three established pancreatic cancer cell lines in cytotoxicity assays versus a collection of approved and investigational drugs. Importantly, we screened these lines as traditional monolayer (2D) and spheroid (3D) formats to gain an appreciation of agents with differential activity.
Multicellular tumor spheroids from Panc1, MiaPaCa-2, and the primary low-passage tissue culture line SB.06 were seeded in stem cell media (SCM) in nonadherent 6-well plates coated with hydrogel (Corning Life Sciences, Chelmsford, Mass) and pancreatic spheres generated for 14 days before screening. Cells were seeded into 1536-well solid-bottom white tissue culture treated Greiner Bio One Plates (789173-F) using a MultiDrop Combi (Thermofisher Scientific) dispenser and a small sterile cassette. One column was media alone to be used as a :"no cells" control. The plates were then covered with sterilized stainless steel gasketed lids from Kalypsys. After allowing cells to attach for 4 hours, 23 nL of test compound or control (negative control DMSO and positive control 9.2 uM Bortezomib-final) were added from a 1536-well polypropylene compound source plate to each well using a 1536 head pin tool from Kalypsys. Cells were then incubated for 48 hours at 37C, 95% relative humidity and 5% CO2. After 48 hours, plates were removed from the incubator and 3 uL of CellTiter-Glo (Promega) was added using an Aurora Flying Reagent Dispenser Bioraptor. Plates were incubated at room temperature for 10 minutes prior to reading the luminescence on the Viewlux (PerkinElmer). The relative luciferase units are used to calculate the percent activity using the activity of DMSO in the cells and no cells columns for normalization of no inhibition and full inhibition respectively.

SMILES | IC50 (viability decrease) | viability (% of control)
Cc1ccc(-c2cc(C(F)(F)F)nn2-c2ccc(S(N)(=O)=O)cc2)cc1 | inconclusive: 30.3 µM [cytotoxic, partial curve] | 
CN(C)C(=O)c1ccc(S(=O)(=O)c2ccc(NC(=O)[C@@](C)(O)C(F)(F)F)c(Cl)c2)cc1 | inconclusive: 5.9 µM [cytotoxic, partial curve] | 
CC(=O)Nc1cccc(-n2c(=O)n(C3CC3)c(=O)c3c(Nc4ccc(I)cc4F)n(C)c(=O)c(C)c32)c1 | inconclusive: 0.0372 µM [cytotoxic, full curve] | 
CC(C)C[C@H](NC(=O)c1cc2ccccc2s1)C(=O)N1CCN(C(=O)[C@H](CO)NS(=O)(=O)c2ccc(Cl)cc2Cl)CC1 | inconclusive: 33.2 µM [cytotoxic, single point] | 
Cc1cccc(Nc2nc(N[C@@H]3CCCC[C@H]3N)ncc2C(N)=O)c1 | inconclusive: 26.4 µM [cytotoxic, single point] | 
Fc1ccc(Cl)cc1-c1nc(Nc2ccncc2)c2nccnc2n1 |  | inactive: 111
CC(C)(N)C(=O)N[C@H](COCc1ccccc1)C(=O)N1CCC2(CC1)CN(S(C)(=O)=O)c1ccccc12 | inconclusive: 33.2 µM [cytotoxic, single point] | 
Cn1cc(-c2ccc3nnc(Sc4ccc5ncccc5c4)n3n2)cn1 |  | inactive: 95.4
COc1cc2c(cc1OC)CN(CCc1ccc(NC(=O)c3cccc4c(=O)c5cccc(OC)c5[nH]c34)cc1)CC2 | active: 10.5 µM | 
C=CC(=O)Nc1cccc(Oc2nc(Nc3ccc(N4CCN(C)CC4)cc3OC)ncc2Cl)c1 | inconclusive: 29.6 µM [cytotoxic, single point] | 
Nc1cccc2c1CN(C1CCC(=O)NC1=O)C2=O (stereo not given) | inconclusive: 48.1 µM [cytotoxic, single point] | 
Cc1c(-c2ccc(O)cc2)n(Cc2ccc(OCCN3CCCCCC3)cc2)c2ccc(O)cc12 | inconclusive: 33.2 µM [cytotoxic, single point] | 
Cc1c(C(=O)Nc2ccc(N3C[C@@H](C)O[C@@H](C)C3)nc2)cccc1-c1ccc(OC(F)(F)F)cc1 | inconclusive: 11.8 µM [cytotoxic, partial curve] | 
CCOC(=O)C(C)Oc1cccc2c(=O)n(CC(=O)Nc3ccc4c(c3)OCCO4)ccc12 (stereo not given) | inconclusive: 33.2 µM [cytotoxic, single point] | 
COc1ccc(CCN2CCN(CCCc3ccccc3)CC2)cc1OC | inconclusive: 18.7 µM [cytotoxic, partial curve, poor fit] | 
CCN(CC)CCCCNc1nc2cc(Cl)c(Cl)cc2nc1-c1ccc(-c2cccs2)s1 | active: 23.5 µM | 
CC(C)(C)c1cc(C(C)(C)C)c(NC(=O)c2c[nH]c3ccccc3c2=O)cc1O | inconclusive: 33.2 µM [cytotoxic, single point] | 
CCCc1nn(C)c2c(=O)[nH]c(-c3cc(S(=O)(=O)N4CCN(C)CC4)ccc3OCC)nc12 |  | inactive: 100
COc1cc(OC2CCN(C)CC2)ccc1Nc1ncc2c(n1)n(C1CCCC1)c(=O)n2C | inconclusive: 3.72 µM [cytotoxic, full curve] | 
COc1ccccc1-c1cccc(-c2c(O)c3cc(C#N)c(Cl)cc3[nH]c2=O)c1 | inconclusive: 14.8 µM [cytotoxic, partial curve, poor fit] | 

Single records, as listed above:
CCN(CC)CCCCNc1nc2cc(Cl)c(Cl)cc2nc1-c1ccc(-c2cccs2)s1 as listed: IC50 (viability decrease): active: 23.5 µM
Cc1c(C(=O)Nc2ccc(N3C[C@@H](C)O[C@@H](C)C3)nc2)cccc1-c1ccc(OC(F)(F)F)cc1 as listed: IC50 (viability decrease): inconclusive: 11.8 µM [cytotoxic, partial curve]
Cn1cc(-c2ccc3nnc(Sc4ccc5ncccc5c4)n3n2)cn1 as listed: viability (% of control): inactive: 95.4

Further structures.

SMILES | IC50 (viability decrease) | viability (% of control)
COc1cc2nccc(Oc3ccc(NC(=O)Nc4cc(C)on4)c(Cl)c3)c2cc1OC | inconclusive: 18.7 µM [cytotoxic, partial curve] | 
CC1(O)CC(c2nc(-c3ccc4ccc(-c5ccccc5)nc4c3)c3c(N)nccn23)C1 (stereo not given) | inconclusive: 23.5 µM [cytotoxic, single point] | 
CC(c1cc2ccccc2s1)N(O)C(N)=O (stereo not given) |  | inconclusive: 99.3 [at 92.2 µM]
COc1ccc2nc(S(=O)Cc3ncc(C)c(OC)c3C)[nH]c2c1 (stereo not given) | inconclusive: 16.6 µM [cytotoxic, partial curve] | 
Cn1cc(-c2[nH]c3cc(NC(=O)[C@H](N)C4CCCCC4)cc4c3c2C=NNC4=O)cn1 | active: 2.64 µM | 
OC[C@H](Cc1ccccc1)Nc1nc(Oc2ccc3c(c2)CCC3)nc2c1ncn2Cc1ccc(-c2ccccc2)cc1 | inconclusive: 5.26 µM [cytotoxic, full curve] | 
COc1ccc(CCN(C)CCCC(C#N)(c2ccc(OC)c(OC)c2)C(C)C)cc1OC (stereo not given) |  | inactive: 78.3
COc1c(Cl)cc2c([nH]c3cnccc32)c1NC(=O)c1cccnc1C |  | inactive: 90.4
CC(C)[C@H](C(=O)Nc1ccc(C(=O)NO)cc1)c1ccccc1 | active: 0.833 µM | 
CS(=O)(=O)Oc1ccc2c(NC(N)=O)c(C(=O)c3ccc(Cl)cc3Cl)oc2c1 | inconclusive: 20.9 µM [cytotoxic, single point] | 
O=C(NOC[C@H](O)CO)c1ccc(F)c(F)c1Nc1ccc(I)cc1F | inconclusive: 0.332 µM [cytotoxic, partial curve] | 
CCCCN1CCC(CNC(=O)c2c3n(c4ccccc24)CCCO3)CC1 |  | inactive: 112
COc1ccc2c(c1)CC[C@@H](CN(C)CC(=O)O)[C@H]2c1ccccc1 |  | inconclusive: 115
C[C@]1(CO)CN(c2cc(C(=O)Nc3ccc4c(c3)-c3c(c(C(N)=O)nn3-c3ccc(F)cc3)CC4)c(Cl)cn2)C[C@@]1(C)CO | inconclusive: 13.2 µM [cytotoxic, partial curve, poor fit] | 
O=C(C=Cc1c(C(=O)O)[nH]c2cc(Cl)cc(Cl)c12)Nc1ccccc1 |  | inconclusive: 103
O=C(O)c1ccc(O)c2ncc(N3CCOCC3)cc12 | inconclusive: 33.2 µM [cytotoxic, single point] | 
COc1ccc(CCN(C)CCCOc2ccc(S(=O)(=O)c3[nH]c4ccccc4c3C(C)C)cc2)cc1OC | inconclusive: 29.6 µM [cytotoxic, single point] | 
CCc1cncnc1N1CCN(Cc2nc3ccc(C(F)(F)F)cc3[nH]2)CC1 | inconclusive: 11.8 µM [cytotoxic, partial curve] | 
CC(=O)OCCN1C(=O)c2c(C)nc3ccc(S(=O)(=O)N4CCOCC4)cc3c2C1=O |  | inactive: 89.9
CN(C)CCCNC(=O)c1ccc(-c2cc(O)c3ncccc3c2)cc1 | inconclusive: 33.2 µM [cytotoxic, single point] | 
